In patent publication US20090156645A1, “Method for Increasing the Susceptibility of Peptide Deformylase Inhibitors by Using Efflux Pump Inhibitors” (priority 2004, published 2009):
Where two headings read alike, the source gives them in different places.

Tested on: H. influenzae
Assay: microbe, parasite or virus in culture
Assay type: cell-based, Haemophilus influenzae
Details: for MIC: Haemophilus influenzae
Experimental: L-broth or L-agar (Difco) is used for routine growth of Escherichia coli (E. coli). Chocolate agar plates (Remel) are used for routine growth of H. influenzae. Brain heart infusion broth (Remel) supplemented with 10 μg/mL of β-NAD (Fluka) and 10 μg/mL hemin/vitamin K solution (sBHI) (Remel) is used for liquid broth cultivation of H. influenzae. For induction of natural competence in H. influenzae, nutritional downshift is induced using M-IV medium as described previously. See Poje and Redfield, Methods Mol Med, Vol. 71, No., pp. 57-70 (2003). Kanamycin is added to growth media at 50 μg/mL (E. coli) or 5 μg/mL (H. influenzae) as required.
Antibiotic and substrate MICs are determined by broth microdilution using 2-fold dilution in HTM in accordance with the procedures established by the National Committee for Clinical Laboratory Standards (NCCLS). See NCCLS, Approved standard M7-A5, Wayne, Pa. (2003). PDF inhibitors are synthesized at the Novartis Institutes for BioMedical Research, Cambridge, Mass. All remaining antibiotics are obtained from Sigma (St. Louis, Mo.).

CCC[C@@H]1C[C@@H](C(=O)N[C@@H]([C@H]2O[C@H](SC)[C@H](O)[C@@H](O)[C@H]2O)[C@H](C)Cl)N(C)C1 [CLD, clindamycin]
0.5 µg/mL: MIC (strain NB65016-CDS0004, knockout acrB) | MIC (strain NB65044-CDS0001 (NB65044 acrB::Km)) | MIC (strain NB65044-CDS0020 (Table 1: NB65044 acrB::Km)) | MIC (strain NB65051-CDS0002, knockout acrB) | MIC (strain NB65051-CDS0022, knockout HI1462) | MIC (strain NB65063-CDS0005, knockout acrB) | MIC (strain NB65069-CDS0007, knockout acrB) | MIC (strain NB65076-CDS0006, knockout acrB)
4 fold: decrease in susceptibility | decrease in susceptibility (two acrR mutants of NB65044 selected on 8 μg/mL LBM415 versus parent)
2 µg/mL: MIC (strain NB65027-CDS0003, knockout HI1462) | MIC (strain NB65027-CDS0021, knockout acrB)
32 µg/mL: MIC (strain NB65044-CDS0008, knockout acrR) | MIC (strain NB65044-CDS0011 (acrR mutant selected on 8 μg/mL LBM415, stop codon)) | MIC (strain NB65044-CDS0014 (acrR mutant selected on 8 μg/mL LBM415, L→P))
